Measured values published in the supplement of paper PMC4635364.
Where a name gives a salt, the structure may show the parent alone. The list shows a part of the results. Single values are uncertain here, since repeats match poorly.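 ReNCell VM, a human fetal ventral-midbrain neural progenitor line, was differentiated without mitogens. Blinded raters scored images stained for doublecortin (early neurons) or tyrosine hydroxylase (dopaminergic neurons) against untreated wells (0 = no change). Scores were averaged across repeats and both raters, and compounds averaging 2 or more were selected as hits for retesting.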

System: ReNCell VM
Assay: neuronal differentiation score (DCX+ cell fraction vs untreated, manual image score) (score (-3 to 3)); higher = more neuronal differentiation
Details: library: LOPAC; 2 uM; 2 weeks

Neuronal differentiation score, inactive:
CCSC(=N)N [S-Ethylisothiourea hydrobromide] 0, C=CCn1c(=O)c2c(nc(-c3ccc(S(=O)(=O)O)cc3)n2C)n(C)c1=O [1-Allyl-3,7-dimethyl-8-p-sulfophenylxanthine] 1, CNCC[C@H](Oc1ccc(C(F)(F)F)cc1)c1ccccc1 [S-(+)-Fluoxetine hydrochloride] 0, CC(=O)OCC(=O)[C@@]1(O)CC[C@H]2[C@@H]3CCC4=CC(=O)CC[C@]4(C)[C@H]3C(=O)C[C@@]21C [Cortisone 21-acetate] 0

Same assay, conditions: library: Natural; 2 uM; 2 weeks

Neuronal differentiation score, inactive:
O=C(O)[C@H](O)[C@@](O)(Cc1ccc(O)cc1)C(=O)O [piscidic acid] 0, COc1c(O)cc2oc3cc(O)c(CC=C(C)C)c(O)c3c(=O)c2c1CC=C(C)C [mangostine] 0, C=C[C@@]1(C)CC(=O)[C@]2(O)[C@@]3(C)[C@@H](O)CCC(C)(C)[C@@H]3[C@H](O)[C@H](OC(C)=O)[C@@]2(C)O1 [forskolin] 0

Same assay, conditions: library: Prestwick; 2 uM; 2 weeks

Neuronal differentiation score, inactive:
Cc1cccc(C)c1NC(=O)CN1CCN(CCCC(c2ccc(F)cc2)c2ccc(F)cc2)CC1 [Lidoflazine] 0, Clc1ccc2c(c1)CCc1cccnc1C2=C1CCNCC1 [Desloratadine] 0, Cn1c([N+](=O)[O-])cnc1COC(N)=O [Ronidazole] 0, CCN(CC)CC#CCOC(=O)C(O)(c1ccccc1)C1CCCCC1 (stereo unspecified) [Oxybutynin chloride] 0, CCC[C@@H]1C[C@@H](C(=O)N[C@@H]([C@H]2O[C@H](SC)[C@H](O)[C@@H](O)[C@H]2O)[C@@H](C)O)N(C)C1 [Lincomycin hydrochloride] 0, C=CC(N)CCC(=O)O (stereo unspecified) [Vigabatrin] 0, CCC(=O)O[C@]1(C(=O)CCl)[C@@H](C)C[C@H]2[C@@H]3CCC4=CC(=O)C=C[C@]4(C)[C@@]3(F)[C@@H](O)C[C@@]21C [Clobetasol propionate] 0, O=C(O)c1ccccc1Nc1cccc(C(F)(F)F)c1 [Flufenamic acid] 0, CN(Cc1ccc(C(C)(C)C)cc1)Cc1cccc2ccccc12 [Butenafine Hydrochloride] 0
